The whole screen tested about 260,000 compounds, of which about 1,500 (0.58%) were called active. The shares of active, inactive and inconclusive entries below differ from those in the screen.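 Rule for the calls: active = inhibition above a set limit at one or more doses, reproduced on every date tested; inconclusive = results disagree between test dates, or hit never tested in dose response; inactive = the rest.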
Molecular target: Virion infectivity factor (Human immunodeficiency virus type 1 group M subtype B (isolate BH10)) + Virion infectivity factor (Human immunodeficiency virus type 1 group M subtype B (isolate BRU/LAI)) + Virion infectivity factor (Human immunodeficiency virus type 1 group M subtype B (isolate PCV12)) + Virion infectivity factor (Human immunodeficiency virus type 1 group M subtype B (isolate HXB2)) + DNA dC->dU-editing enzyme APOBEC-3G (Homo sapiens) (UniProt P69720+P69721+P69722+P69723+Q9HC16)
Experiment: inhibitors of Vif binding to APOBEC3G peptide, primary screen, biochemical, TR-FRET, GST-Vif 1-94, biotin-A3G peptide, dose response retest (AID 1117319);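 note: Vif residues 1-94 fused to GST binding biotinylated APOBEC3G peptide 110-148; 0% = full assay without inhibitor and 100% = GST in place of GST-Vif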
Settings: active compounds read high

Amino acid sequences for entries named in this document (tags omitted). A change or cut given only in a name is not applied to a line headed by its entry.
UniProt P69720: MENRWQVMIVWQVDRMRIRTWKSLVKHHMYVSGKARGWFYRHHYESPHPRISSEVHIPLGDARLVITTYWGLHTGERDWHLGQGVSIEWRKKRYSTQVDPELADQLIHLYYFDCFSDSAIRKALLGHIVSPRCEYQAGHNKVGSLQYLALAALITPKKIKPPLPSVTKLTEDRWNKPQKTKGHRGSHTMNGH
UniProt P69721: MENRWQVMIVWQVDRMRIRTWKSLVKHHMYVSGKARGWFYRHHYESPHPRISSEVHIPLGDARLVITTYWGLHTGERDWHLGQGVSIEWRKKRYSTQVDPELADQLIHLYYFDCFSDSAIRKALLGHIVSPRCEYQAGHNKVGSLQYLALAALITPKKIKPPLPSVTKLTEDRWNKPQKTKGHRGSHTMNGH
UniProt P69722: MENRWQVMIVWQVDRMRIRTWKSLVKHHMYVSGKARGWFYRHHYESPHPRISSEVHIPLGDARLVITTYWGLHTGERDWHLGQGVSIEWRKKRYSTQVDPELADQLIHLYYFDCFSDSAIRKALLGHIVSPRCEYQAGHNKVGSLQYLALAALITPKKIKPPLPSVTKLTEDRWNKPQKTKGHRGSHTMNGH
UniProt P69723: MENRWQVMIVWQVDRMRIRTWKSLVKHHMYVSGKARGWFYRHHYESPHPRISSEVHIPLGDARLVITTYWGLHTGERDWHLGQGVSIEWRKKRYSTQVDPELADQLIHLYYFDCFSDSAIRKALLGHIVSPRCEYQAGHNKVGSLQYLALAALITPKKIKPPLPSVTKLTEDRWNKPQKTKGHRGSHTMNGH
UniProt Q9HC16: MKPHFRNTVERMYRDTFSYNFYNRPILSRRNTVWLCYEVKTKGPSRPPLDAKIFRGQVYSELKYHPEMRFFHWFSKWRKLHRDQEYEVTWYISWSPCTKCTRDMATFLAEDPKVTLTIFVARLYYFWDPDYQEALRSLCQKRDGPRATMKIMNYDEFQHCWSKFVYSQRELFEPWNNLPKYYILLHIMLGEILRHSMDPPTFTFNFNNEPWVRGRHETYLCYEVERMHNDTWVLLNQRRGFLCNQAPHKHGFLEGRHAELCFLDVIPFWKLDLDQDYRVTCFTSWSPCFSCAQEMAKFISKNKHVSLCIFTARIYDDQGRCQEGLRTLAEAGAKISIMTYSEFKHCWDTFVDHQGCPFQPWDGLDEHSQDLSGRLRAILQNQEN

Structure (SMILES)	inhibition
O=C(Nc1ccccc1)N1CCCC2CCCCC21 (centres undefined)	inactive: 7.94%
Cc1noc(NS(=O)(=O)c2ccc(NC(=O)CCCOc3ccc(Cl)cc3Cl)cc2)c1C	inactive: 2.83%
COc1ccc(-c2noc(CN(C)S(=O)(=O)c3ccc(Cl)cc3)n2)cc1OC	inconclusive: 57.1%
O=C(Nc1cccc([N+](=O)[O-])c1)Nc1ccc(Cl)cn1	inconclusive: 48.2%
CC(C)CC(c1nnnn1C1CCCC1)N1CCN(C(=O)c2ccco2)CC1 (centres undefined)	inconclusive: 39.4%
Cc1cc(C(F)(F)F)nn1CC(=O)NCc1ccccc1	inconclusive: 38.6%
COc1cc(CO)c(Br)cc1OCC(N)=O	inconclusive: 45%
Cc1cccc(C(=O)N2CCC(n3nnc4cc(F)ccc43)CC2)c1	inconclusive: 60.3%
C=CCNC(=S)N/N=C/c1ccc(N(CC)Cc2ccccc2)cc1	inactive: -8.07%
Nc1nnc(SCC(=O)OCC(=O)Nc2ccccc2)s1	inconclusive: 38.2%
CCC(c1nnnn1Cc1ccco1)N(Cc1cc2cc(OC)ccc2[nH]c1=O)C1CCCCC1 (centres undefined)	inconclusive: 44.5%
O=C(N/N=C/c1ccc(O)c(O)c1)C1c2ccccc2Oc2ccccc21	inconclusive: 43.2%
Cc1c(Cl)cccc1NC(=O)Cn1cnc(S(=O)(=O)N2CCCC2)c1	inconclusive: 33%
CC(=O)c1cc2c(cc1NC(=O)CCc1ccccc1)OCO2	inconclusive: 59%
CCn1c2ccccc2c2cc(C3N=C(N)Nc4nc5ccccc5n43)ccc21 (centres undefined)	inconclusive: 36%
COc1nc(N)nc(CC(=O)C2CC2)n1	inconclusive: 38%
O=S(c1ccc2ccccc2c1)c1cnns1 (centres undefined)	inconclusive: 15.8%
C=CCSc1nnc(NC(=O)c2cccc(S(=O)(=O)N3CCOCC3)c2)s1	inconclusive: 36%
COC(=O)CCCC1=CC2=CC(=O)C(C)(OC(=O)c3cccs3)C(=O)C2=CN1Cc1ccc2c(c1)OCO2 (centres undefined)	inconclusive: 40.1%
Cc1cc(C)c2c(C)[nH]nc2n1	inconclusive: 33.5%
CCOc1ccccc1N/C=C/C(=O)C(C)(C)C	inconclusive: 36.2%
O=C1C(=O)N(Cc2ccco2)C(c2cccc(Cl)c2)/C1=C(\O)c1ccc2c(c1)OCCO2 (centres undefined)	inconclusive: 38.1%

Structure (SMILES)	inhibition
COc1ccc(C(=O)N/C(=C/c2ccco2)C(=O)NC2CCS(=O)(=O)C2)cc1 (centres undefined)	inconclusive: 44.4%
O=C(NCc1ccco1)c1ccc(S(=O)(=O)N2CCOCC2)cc1	inconclusive: 33.5%
Cc1nnc(Sc2cc(NCCCO)c([N+](=O)[O-])c3nonc23)s1	inconclusive: 45.5%
Cc1ccc(Nc2nc(-c3cccnc3)nc3ccccc23)cc1	inconclusive: 34%
O=c1cc(-c2ccccc2Cl)oc2ccc([N+](=O)[O-])c(O)c12	inconclusive: 36.5%
COc1cc(C)c(C)cc1S(=O)(=O)NC1CC(C)(C)NC(C)(C)C1	inconclusive: 50.9%
O=C(NCCc1ccccc1)C1CCN(S(=O)(=O)c2cccc3nonc23)CC1	inactive: -0.8%
O=C(NC1CC1)c1scc2c1OCCO2	inconclusive: 41.2%
CCOC(=O)c1cccc(S(=O)(=O)N2CCOCC2)c1	inconclusive: 43.5%
COc1ccc([N+](=O)[O-])cc1NC(=O)c1ccc(N2C(=O)CCC2=O)cc1	inconclusive: 58.1%
COc1ccccc1N(CC(=O)N1CCCCCC1)S(C)(=O)=O	inconclusive: 58%
OC1CC(c2ccco2)NC2(CCCCC2)C1 (centres undefined)	inconclusive: 50.7%
COc1cc2[nH]c(=S)n(Cc3cccs3)c(=O)c2cc1OC	inactive: -5.73%
COc1cccc(C2c3c(oc4ccc(F)cc4c3=O)C(=O)N2CCN2CCOCC2)c1OC (centres undefined)	inconclusive: 43.9%
CCc1ccc(N(C(=O)c2csnn2)C(C(=O)NC(C)(C)C)c2ccccn2)cc1 (centres undefined)	inactive: 0.91%
CN(Cc1ccccc1)C(=O)CSc1nnc(-c2ccco2)n1-c1ccccc1	inconclusive: 48.8%
Cc1cc(=O)oc(C)c1C(=O)n1nc(C)c2c1C[C@@H]1[C@H]2C1(C)C	inconclusive: 34.2%
CC1(C)CC(OC(=O)c2ccccc2)CC(C)(C)N1	inconclusive: 38.7%
CCN(CC)C1CCN(C(=O)CCc2nnc(CCc3ccccc3)o2)C1 (centres undefined)	inconclusive: 44.7%
CCCC(=O)N=c1sc2c(OC)ccc(OC)c2n1C	inconclusive: 37.4%
Cc1nn(CCC(=O)NNC(=S)Nc2ccc(Cl)cc2)c(C)c1[N+](=O)[O-]	inconclusive: 55%
CCOc1ccc(N(CC(=O)Nc2ccc(C)cc2)S(=O)(=O)c2c(C)noc2C)cc1	inconclusive: 61.8%

Retrieved by structure from the list above, two records:
Structure (SMILES)	inhibition
COc1ccc(C(=O)N/C(=C/c2ccco2)C(=O)NC2CCS(=O)(=O)C2)cc1 (centres undefined)	inconclusive: 44.4%
CCCC(=O)N=c1sc2c(OC)ccc(OC)c2n1C	inconclusive: 37.4%

From PubChem BioAssay AID1117319 (Southern Research Institute, 2015)
